Among the data in PMC10539700 are binding values, retold here.

Sequences of proteins named here, by UniProt entry; tags and fusion partners are left off.
UniProt Q9UBN7: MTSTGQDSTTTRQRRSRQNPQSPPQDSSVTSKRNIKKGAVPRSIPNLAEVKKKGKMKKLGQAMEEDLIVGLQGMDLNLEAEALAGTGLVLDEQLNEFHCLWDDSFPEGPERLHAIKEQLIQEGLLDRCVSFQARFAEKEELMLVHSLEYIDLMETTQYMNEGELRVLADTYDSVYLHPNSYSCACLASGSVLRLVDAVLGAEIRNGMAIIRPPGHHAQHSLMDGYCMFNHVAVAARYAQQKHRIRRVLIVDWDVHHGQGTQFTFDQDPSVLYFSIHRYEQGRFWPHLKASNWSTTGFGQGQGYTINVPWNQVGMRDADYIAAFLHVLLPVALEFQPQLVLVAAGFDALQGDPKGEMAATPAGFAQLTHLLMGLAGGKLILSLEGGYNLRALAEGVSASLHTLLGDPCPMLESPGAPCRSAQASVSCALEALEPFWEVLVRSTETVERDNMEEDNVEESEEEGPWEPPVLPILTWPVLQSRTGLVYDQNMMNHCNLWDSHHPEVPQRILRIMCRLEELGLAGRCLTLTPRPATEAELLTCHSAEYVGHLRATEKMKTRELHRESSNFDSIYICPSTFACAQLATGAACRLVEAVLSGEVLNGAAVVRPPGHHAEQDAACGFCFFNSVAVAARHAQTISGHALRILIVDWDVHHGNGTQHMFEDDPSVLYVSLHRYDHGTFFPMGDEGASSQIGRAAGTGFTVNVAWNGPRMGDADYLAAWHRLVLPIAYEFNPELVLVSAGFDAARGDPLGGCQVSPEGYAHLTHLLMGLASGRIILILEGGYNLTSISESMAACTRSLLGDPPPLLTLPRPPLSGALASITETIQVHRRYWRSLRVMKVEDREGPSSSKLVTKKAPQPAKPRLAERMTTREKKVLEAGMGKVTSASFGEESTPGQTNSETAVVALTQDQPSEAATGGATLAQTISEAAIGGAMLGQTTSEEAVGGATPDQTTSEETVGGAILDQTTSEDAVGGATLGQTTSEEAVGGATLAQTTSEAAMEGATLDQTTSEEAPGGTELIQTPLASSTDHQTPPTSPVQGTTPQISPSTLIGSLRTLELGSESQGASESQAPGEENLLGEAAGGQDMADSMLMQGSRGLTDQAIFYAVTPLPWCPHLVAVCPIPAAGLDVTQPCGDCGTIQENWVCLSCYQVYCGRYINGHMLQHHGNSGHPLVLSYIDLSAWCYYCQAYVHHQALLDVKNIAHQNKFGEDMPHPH
UniProt P08238: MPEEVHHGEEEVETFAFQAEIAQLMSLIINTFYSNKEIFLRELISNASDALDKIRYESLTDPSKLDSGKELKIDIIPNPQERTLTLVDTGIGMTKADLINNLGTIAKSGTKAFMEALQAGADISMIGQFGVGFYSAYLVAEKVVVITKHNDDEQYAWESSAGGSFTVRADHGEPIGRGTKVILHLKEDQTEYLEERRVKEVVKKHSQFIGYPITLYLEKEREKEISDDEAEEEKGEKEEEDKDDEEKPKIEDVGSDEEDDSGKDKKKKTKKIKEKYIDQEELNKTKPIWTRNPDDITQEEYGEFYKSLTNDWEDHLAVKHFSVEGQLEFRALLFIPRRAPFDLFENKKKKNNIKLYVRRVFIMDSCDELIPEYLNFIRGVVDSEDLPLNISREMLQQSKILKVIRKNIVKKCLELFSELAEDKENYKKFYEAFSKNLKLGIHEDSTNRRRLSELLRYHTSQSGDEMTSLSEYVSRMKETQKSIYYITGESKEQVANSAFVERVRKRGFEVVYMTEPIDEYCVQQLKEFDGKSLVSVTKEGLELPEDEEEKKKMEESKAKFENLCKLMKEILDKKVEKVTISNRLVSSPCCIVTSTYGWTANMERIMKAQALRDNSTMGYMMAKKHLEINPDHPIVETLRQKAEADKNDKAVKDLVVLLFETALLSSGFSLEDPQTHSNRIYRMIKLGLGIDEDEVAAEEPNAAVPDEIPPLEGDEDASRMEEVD

The target of the test is HDAC6 expressed from the plasmid HDAC6 (gift) in HEK293T cells (UniProt Q9UBN7). Briefly: co-IP; HEK293T cells co-transfected with plasmids for HDAC6 and HA-HSP90 AA1 or HA-HSP90 AB1, with or without heat shock at 43°C for 1 h; detected by WB.

Results are given in words; binding and its absence hold for the method and conditions named. Binding seen in cells or lysates may run through a third protein. Some results given as binding are weak or reduced against the parent protein; the word gives no strength.

“HA-HSP90 AA1 (from UniProt P07900 1-732)”: the binding entry was “binds”.

As to “HA-HSP90 AB1 (from UniProt P08238 1-724)”, the binding entry is given as “binds”.
